B1: NEK9 (protein, UniProt Q8TD19 2-979, looked up)
Serine/threonine-protein …: SVLGEYERHCDSINSDFGSESGGCGDSSPGPSASQGPRAGGGAAEQEELHYIPIRVLGRGAFGEATLYRRTEDDSLVVWKEVDLTRLSEKERRDALNEIVILALLQHDNIIAYYNHFMDNTTLLIELEYCNGGNLYDKILRQKDKLFEEEMVVWYLFQIVSAVSCIHKAGILHRDIKTLNIFLTKANLIKLGDYGLAKKLNSEYSMAETLVGTPYYMSPELCQGVKYNFKSDIWAVGCVIFELLTLKRTFDATNPLNLCVKIVQGIRAMEVDSSQYSLELIQMVHSCLDQDPEQRPTADELLDRPLLRKRRREMEEKVTLLNAPTKRPRSSTVTEAPIAVVTSRTSEVYVWGGGKSTPQKLDVIKSGCSARQVCAGNTHFAVVTVEKELYTWVNMQGGTKLHGQLGHGDKASYRQPKHVEKLQGKAIRQVSCGDDFTVCVTDEGQLYAFGSDYYGCMGVDKVAGPEVLEPMQLNFFLSNPVEQVSCGDNHVVVLTRNKEVYSWGCGEYGRLGLDSEEDYYTPQKVDVPKALIIVAVQCGCDGTFLLTQSGKVLACGLNEFNKLGLNQCMSGIINHEAYHEVPYTTSFTLAKQLSFYKIRTIAPGKTHTAAIDERGRLLTFGCNKCGQLGVGNYKKRLGINLLGGPLGGKQVIRVSCGDEFTIAATDDNHIFAWGNGGNGRLAMTPTERPHGSDICTSWPRPIFGSLHHVPDLSCRGWHTILIVEKVLNSKTIRSNSSGLSIGTVFQSSSPGGGGGGGGGEEEDSQQESETPDPSGGFRGTMEADRGMEGLISPTEAMGNSNGASSSCPGWLRKELENAEFIPMPDSPSPLSAAFSESEKDTLPYEELQGLKVASEAPLEHKPQVEASSPRLNPAVTCAGKGTPLTPPACACSSLQVEVERLQGLVLKCLAEQQKLQQENLQIFTQLQKLNKKLEGGQQVGMHSKGTQTAKEEMEMDPKPDLDSDSWCLLGTDSCRPSL
B2: CDC45 (protein, UniProt O75419 1-566, looked up)
Cell division control protein …: MFVSDFRKEFYEVVQSQRVLLFVASDVDALCACKILQALFQCDHVQYTLVPVSGWQELETAFLEHKEQFHYFILINCGANVDLLDILQPDEDTIFFVCDTHRPVNVVNVYNDTQIKLLIKQDDDLEVPAYEDIFRDEEEDEEHSGNDSDGSEPSEKRTRLEEEIVEQTMRRRQRREWEARRRDILFDYEQYEYHGTSSAMVMFELAWMLSKDLNDMLWWAIVGLTDQWVQDKITQMKYVTDVGVLQRHVSRHNHRNEDEENTLSVDCTRISFEYDLRLVLYQHWSLHDSLCNTSYTAARFKLWSVHGQKRLQEFLADMGLPLKQVKQKFQAMDISLKENLREMIEESANKFGMKDMRVQTFSIHFGFKHKFLASDVVFATMSLMESPEKDGSGTDHFIQALDSLSRSNLDKLYHGLELAKKQLRATQQTIASCLCTNLVISQGPFLYCSLMEGTPDVMLFSRPASLSLLSKHLLKSFVCSTKNRRCKLLPLVMAAPLSMEHGTVTVVGIPPETDSSDRKNFFGRAFEKAAESTSSRMLHNHFDLSVIELKAEDRSKFLDALISLLS
B3: BUB1 (protein, UniProt O43683 1-1085, looked up)
Mitotic checkpoint …: MDTPENVLQMLEAHMQSYKGNDPLGEWERYIQWVEENFPENKEYLITLLEHLMKEFLDKKKYHNDPRFISYCLKFAEYNSDLHQFFEFLYNHGIGTLSSPLYIAWAGHLEAQGELQHASAVLQRGIQNQAEPREFLQQQYRLFQTRLTETHLPAQARTSEPLHNVQVLNQMITSKSNPGNNMACISKNQGSELSGVISSACDKESNMERRVITISKSEYSVHSSLASKVDVEQVVMYCKEKLIRGESEFSFEELRAQKYNQRRKHEQWVNEDRHYMKRKEANAFEEQLLKQKMDELHKKLHQVVETSHEDLPASQERSEVNPARMGPSVGSQQELRAPCLPVTYQQTPVNMEKNPREAPPVVPPLANAISAALVSPATSQSIAPPVPLKAQTVTDSMFAVASKDAGCVNKSTHEFKPQSGAEIKEGCETHKVANTSSFHTTPNTSLGMVQATPSKVQPSPTVHTKEALGFIMNMFQAPTLPDISDDKDEWQSLDQNEDAFEAQFQKNVRSSGAWGVNKIISSLSSAFHVFEDGNKENYGLPQPKNKPTGARTFGERSVSRLPSKPKEEVPHAEEFLDDSTVWGIRCNKTLAPSPKSPGDFTSAAQLASTPFHKLPVESVHILEDKENVVAKQCTQATLDSCEENMVVPSRDGKFSPIQEKSPKQALSSHMYSASLLRLSQPAAGGVLTCEAELGVEACRLTDTDAAIAEDPPDAIAGLQAEWMQMSSLGTVDAPNFIVGNPWDDKLIFKLLSGLSKPVSSYPNTFEWQCKLPAIKPKTEFQLGSKLVYVHHLLGEGAFAQVYEATQGDLNDAKNKQKFVLKVQKPANPWEFYIGTQLMERLKPSMQHMFMKFYSAHLFQNGSVLVGELYSYGTLLNAINLYKNTPEKVMPQGLVISFAMRMLYMIEQVHDCEIIHGDIKPDNFILGNGFLEQDDEDDLSAGLALIDLGQSIDMKLFPKGTIFTAKCETSGFQCVEMLSNKPWNYQIDYFGVAATVYCMLFGTYMKVKNEGGECKPEGLFRRLPHLDMWNEFFHVMLNIPDCHHLPSLDLLRQKLKKVFQQHYTNKIRALRNRLIVLLLECKRSRK
B4: CCAR1 (protein, UniProt Q8IX12 1-1150, looked up)
Cell division cycle and …: MAQFGGQKNPPWATQFTATAVSQPAALGVQQPSLLGASPTIYTQQTALAAAGLTTQTPANYQLTQTAALQQQAAAAAAALQQQYSQPQQALYSVQQQLQQPQQTLLTQPAVALPTSLSLSTPQPTAQITVSYPTPRSSQQQTQPQKQRVFTGVVTKLHDTFGFVDEDVFFQLSAVKGKTPQVGDRVLVEATYNPNMPFKWNAQRIQTLPNQNQSQTQPLLKTPPAVLQPIAPQTTFGVQTQPQPQSLLQAQISAASITPLLQTQPQPLLQQPQQKAGLLQPPVRIVSQPQPARRLDPPSRFSGRNDRGDQVPNRKDDRSRERERERRRSRERSPQRKRSRERSPRRERERSPRRVRRVVPRYTVQFSKFSLDCPSCDMMELRRRYQNLYIPSDFFDAQFTWVDAFPLSRPFQLGNYCNFYVMHREVESLEKNMAILDPPDADHLYSAKVMLMASPSMEDLYHKSCALAEDPQELRDGFQHPARLVKFLVGMKGKDEAMAIGGHWSPSLDGPDPEKDPSVLIKTAIRCCKALTGIDLSVCTQWYRFAEIRYHRPEETHKGRTVPAHVETVVLFFPDVWHCLPTRSEWETLSRGYKQQLVEKLQGERKEADGEQDEEEKDDGEAKEISTPTHWSKLDPKTMKVNDLRKELESRALSSKGLKSQLIARLTKQLKVEEQKEEQKELEKSEKEEDEDDDRKSEDDKEEEERKRQEEIERQRRERRYILPDEPAIIVHPNWAAKSGKFDCSIMSLSVLLDYRLEDNKEHSFEVSLFAELFNEMLQRDFGVRIYKSLLSLPEKEDKKEKDKKSKKDERKDKKEERDDETDEPKPKRRKSGDDKDKKEDRDERKKEDKRKDDSKDDDETEEDNNQDEYDPMEAEEAEDEEDDRDEEEMTKRDDKRDINRYCKERPSKDKEKEKTQMITINRDLLMAFVYFDQSHCGYLLEKDLEEILYTLGLHLSRAQVKKLLNKVVLRESCFYRKLTDTSKDEENHEESESLQEDMLGNRLLLPTPTVKQESKDVEENVGLIVYNGAMVDVGSLLQKLEKSEKVRAEVEQKLQLLEEKTDEDEKTILNLENSNKSLSGELREVKKDLSQLQENLKISENMNLQFENQMNKTIRNLSTVMDEIHTVLKKDNVKNEDKDQKSKENGASV
B5: BCR (protein, UniProt P11274 1-1271, looked up)
Breakpoint cluster region …: MVDPVGFAEAWKAQFPDSEPPRMELRSVGDIEQELERCKASIRRLEQEVNQERFRMIYLQTLLAKEKKSYDRQRWGFRRAAQAPDGASEPRASASRPQPAPADGADPPPAEEPEARPDGEGSPGKARPGTARRPGAAASGERDDRGPPASVAALRSNFERIRKGHGQPGADAEKPFYVNVEFHHERGLVKVNDKEVSDRISSLGSQAMQMERKKSQHGAGSSVGDASRPPYRGRSSESSCGVDGDYEDAELNPRFLKDNLIDANGGSRPPWPPLEYQPYQSIYVGGMMEGEGKGPLLRSQSTSEQEKRLTWPRRSYSPRSFEDCGGGYTPDCSSNENLTSSEEDFSSGQSSRVSPSPTTYRMFRDKSRSPSQNSQQSFDSSSPPTPQCHKRHRHCPVVVSEATIVGVRKTGQIWPNDGEGAFHGDADGSFGTPPGYGCAADRAEEQRRHQDGLPYIDDSPSSSPHLSSKGRGSRDALVSGALESTKASELDLEKGLEMRKWVLSGILASEETYLSHLEALLLPMKPLKAAATTSQPVLTSQQIETIFFKVPELYEIHKEFYDGLFPRVQQWSHQQRVGDLFQKLASQLGVYRAFVDNYGVAMEMAEKCCQANAQFAEISENLRARSNKDAKDPTTKNSLETLLYKPVDRVTRSTLVLHDLLKHTPASHPDHPLLQDALRISQNFLSSINEEITPRRQSMTVKKGEHRQLLKDSFMVELVEGARKLRHVFLFTDLLLCTKLKKQSGGKTQQYDCKWYIPLTDLSFQMVDELEAVPNIPLVPDEELDALKIKISQIKNDIQREKRANKGSKATERLKKKLSEQESLLLLMSPSMAFRVHSRNGKSYTFLISSDYERAEWRENIREQQKKCFRSFSLTSVELQMLTNSCVKLQTVHSIPLTINKEDDESPGLYGFLNVIVHSATGFKQSSNLYCTLEVDSFGYFVNKAKTRVYRDTAEPNWNEEFEIELEGSQTLRILCYEKCYNKTKIPKEDGESTDRLMGKGQVQLDPQALQDRDWQRTVIAMNGIEVKLSVKFNSREFSLKRMPSRKQTGVFGVKIAVVTKRERSKVPYIVRQCVEEIERRGMEEVGIYRVSGVATDIQALKAAFDVNNKDVSVMMSEMDVNAIAGTLKLYFRELPEPLFTDEFYPNFAEGIALSDPVAKESCMLNLLLSLPEANLLTFLFLLDHLKRVAEKEAVNKMSLHNLATVFGPTLLRPSEKESKLPANPSQPITMTDSWSLEVMSQVQVLLYFLQLEAIPAPDSKRQSILFSTEV
B6: CRKL (protein)
chain: MSSARFDSSDRSAWYMGPVSRQEAQTRLQGQRHGMFLVRDSSTCPGDYVLSVSENSRVSHYIINSLPNRRFKIGDQEFDHLPALLEFYKIHYLDTTTLIEPAPRYPSPPMGSVSAPNLPTAEDNLEYVRTLYDFPGNDAEDLPFKKGEILVIIEKPEEQWWSARNKDGRVGMIPVPYVEKLVRSSPHGKHGNRNSNSYGIPEPAHAYAQPQTTTPLPAVSGSPGAAITPLPSTQNGPVFAKAIQKRVPCAYDKTALALEVGDIVKVTRMNINGQWEGEVNGRKGLFPFTHVKIFDPQNPDENE

Key:
[1] = test system: Hsp90 complexes in Mia-PaCa-2 cell extract; experiment: Nano-LC-MS/MS of PU-beads pull-downs; type: binding, human; settings: protein identified in PU-beads pull-down of Mia-Paca 2 extract; QSTAR-Elite QTof MS
Summary of the method: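 Lysates pre-cleared overnight at 4 °C with control beads underwent PU-bead pull-down; bound proteins were SDS-eluted, gel-separated, digested and analyzed by nano-LC-MS/MS on a QTof. Identifications used significance p<0.05, 0.4 Da tolerances and one missed cleavage; unique peptide (spectral) counts and sequence coverage were reported.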

[2] = test system: Hsp90 complexes in K562 cell extract; experiment: Nano-LC-MS/MS of PU-beads pull-downs; type: binding; settings: protein identified in PU-beads pull-down of K562 extract, QSTAR-Elite QTof MS
Summary of the method: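 Lysates pre-cleared overnight at 4 °C with control beads, then pulled down with PU-beads or control beads; eluted proteins (2% SDS boil) gel-separated and analysed by nano LC-MS/MS on a QTof. Mascot identification (p<0.05), spectral counts and sequence coverage evaluated in Scaffold.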

Molecule	Number of Assigned Spectra, Mia-Paca 2 [1]	Number of Assigned Spectra, K562 Prep 1 [2]	Number of Assigned Spectra, K562 Prep 2 [2]
B1	5	3	3
B2	0	7	7
B3	0	1	0
B4	0	3	0
B5	0	1	4
B6	0	5	0
